The experiment has as its target Held Out Wings, long isoform, wild type (HOW(L)^WT) (Drosophila melanogaster) (UniProt O01367). As to the kind of experiment: co-IP; S2R+ cells co-transfected with GFP-fused and HA-tagged HOW(L) variants (or gfp with how(l)^WT-HA); lysis in 1% NP40 buffer (50 mM Tris pH 7.5, 100 mM NaCl); IP with mouse anti-GFP on protein A/G beads 1-2 h at 4°C; Western blot with anti-HOW; co-precipitated HA protein normalised to its crude level and to the precipitated GFP protein.

No constants are given. Whether binding was seen depends on the method and setting. Binding seen in cells or lysates may run through a third protein. Some entries that bind do so weakly or less than the wild type.

B1: Held Out Wings, long isoform, wild type (HOW(L)^WT) (protein, UniProt O01367 1-405)
chain: MSVCESKAVVQQQLQQHLQQQAAAAVVAVAQQQQAQAQAQAQAQAQQQQQAPQVVVPMTPQHLTPQQQQQSTQSIADYLAQLLKDRKQLAAFPNVFTHVERLLDEEIARVRASLFQINGVKKEPLTLPEPEGSVVTMNEKVYVPVREHPDFNFVGRILGPRGMTAKQLEQETGCKIMVRGKGSMRDKKKEDANRGKPNWEHLSDDLHVLITVEDTENRATVKLAQAVAEVQKLLVPQAEGEDELKKRQLMELAIINGTYRDTTAKSVAVCDEEWRRLVAASDSRLLTSTGLPGLAAQIRAPAAAPLGAPLILNPRMTVPTTAASILSAQAAPTAAFDQTGHGMIFAPYDYANYAALAGNPLLTEYADHSVGAIKQQRRLATNREHPYQRATVGVPAKPAGFIEIQ
modifications: phosphorylated at least on one TP site (T59, T64) in unstimulated S2R+ cells
With B1, the binding result is listed as “binds”.

The values are drawn from PMC3315481, “Phosphorylation of the Drosophila melanogaster RNA–Binding Protein HOW by MAPK/ERK Enhances Its Dimerization and Activity” (PLoS Genetics, 2012).
